pEC50: −log10 of the molar value. Like-named read-outs stand apart in the source and are kept apart here. Structures were worked out from names or drawings and are uncertain.
Tests used:
S1P3 = S1P3 (Homo sapiens, UniProt Q99500); assay: Receptor binding assay, [33P]sphingosine 1-phosphate competition, S1P3; details: tested form: HCl
Method: (§1) Membranes Preparation: Membranes were prepared from CHO cells expressing S1P1 or S1P3 for use in ligand and 35S-GTPγS binding studies. Cells were suspended in 50 mM TRIS, pH 7.4, 2 mM EDTA, 250 mM Sucrose (buffer A) and 1× Complete protease inhibitor cocktail (Roche), and disrupted at 4° C. by N2 decompression using a cell disruption bomb (Parr Instrument). Following centrifugation at 1000 RPM for 10 min at 4° C., the supernatant was diluted (2×) in buffer A and centrifuged again at 19000 RPM for 75 min at 4° C. The pellet was then suspended in 10 mM HEPES, pH 7.4, 1 mM EDTA, 250 mM Sucrose (Buffer B), and 1× Complete EDTA-free protease inhibitor cocktail and homogenized using a potter. Membranes were flash frozen in liquid N2 and stored at −80° C.
(§2) Receptor binding assay: [33P]sphingosine 1-phosphate (3000 Ci/mmol; American Radiolabeled Chemicals, Inc.) was added to test compounds in 20% DMSO by competition. […] Binding was performed for 60 min at RT on a shaker and bound radioactivity was measured on a PerkinElmer 1450 MicroBeta counter. […] Binding data were analyzed using the GraphPad Prism program or Genedata software.

Amino acid sequences for entries named in this document (tags omitted). Chains listed by the source or under a name are the forms on record and can include a tag or linker. Residues count along the entry.
UniProt Q99500, whole entry: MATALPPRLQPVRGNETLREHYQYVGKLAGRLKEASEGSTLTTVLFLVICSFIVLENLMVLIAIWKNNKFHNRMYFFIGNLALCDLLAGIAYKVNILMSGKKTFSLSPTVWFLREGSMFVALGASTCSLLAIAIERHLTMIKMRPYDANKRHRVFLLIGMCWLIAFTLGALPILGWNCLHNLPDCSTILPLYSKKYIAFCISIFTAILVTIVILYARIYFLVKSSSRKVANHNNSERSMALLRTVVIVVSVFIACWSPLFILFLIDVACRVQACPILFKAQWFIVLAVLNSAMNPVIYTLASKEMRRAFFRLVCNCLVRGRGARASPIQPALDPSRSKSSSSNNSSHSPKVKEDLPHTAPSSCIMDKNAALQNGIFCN
UniProt P21453, whole entry: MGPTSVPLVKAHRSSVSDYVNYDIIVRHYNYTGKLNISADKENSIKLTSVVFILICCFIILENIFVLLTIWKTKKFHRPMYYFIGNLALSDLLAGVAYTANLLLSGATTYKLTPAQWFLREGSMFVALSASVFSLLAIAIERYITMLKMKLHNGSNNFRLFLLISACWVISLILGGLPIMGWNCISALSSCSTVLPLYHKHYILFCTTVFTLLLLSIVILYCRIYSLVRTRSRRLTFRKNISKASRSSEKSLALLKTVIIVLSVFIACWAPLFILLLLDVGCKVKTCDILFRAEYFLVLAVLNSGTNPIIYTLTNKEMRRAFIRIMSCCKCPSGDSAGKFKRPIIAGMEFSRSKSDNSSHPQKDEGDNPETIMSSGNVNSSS
UniProt P21453, 1-382 with tags or gaps: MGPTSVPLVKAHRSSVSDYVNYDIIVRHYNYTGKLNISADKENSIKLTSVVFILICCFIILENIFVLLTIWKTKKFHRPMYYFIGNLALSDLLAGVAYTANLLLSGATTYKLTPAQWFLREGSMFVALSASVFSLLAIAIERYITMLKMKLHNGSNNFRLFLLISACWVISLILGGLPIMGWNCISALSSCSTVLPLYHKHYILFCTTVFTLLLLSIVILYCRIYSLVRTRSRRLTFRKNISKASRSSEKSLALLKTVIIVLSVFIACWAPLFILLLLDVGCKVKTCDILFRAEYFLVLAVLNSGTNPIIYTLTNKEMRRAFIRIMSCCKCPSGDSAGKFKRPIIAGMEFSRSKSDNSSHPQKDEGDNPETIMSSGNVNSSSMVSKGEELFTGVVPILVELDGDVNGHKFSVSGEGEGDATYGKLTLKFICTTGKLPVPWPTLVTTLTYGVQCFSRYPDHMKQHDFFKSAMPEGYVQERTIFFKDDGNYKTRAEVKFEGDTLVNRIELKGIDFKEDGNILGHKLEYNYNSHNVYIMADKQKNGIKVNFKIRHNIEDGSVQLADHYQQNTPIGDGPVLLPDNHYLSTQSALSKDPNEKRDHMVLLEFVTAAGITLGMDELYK

[1] = molecular target: human S1P1 Receptor fused to the green fluorescent protein (EGFP) (Homo sapiens, UniProt P21453); assay: Internalization of S1P1 in S1P1-U2OS cells by cell imaging analysis; details: read-out: S1P1 Internalization EC50, 1 hour incubation, 384-well, tested form: HCl
Method: Cellular Functional Assays: Internalization of Sphingosine-1-Phosphate Receptor 1 (S1P1) in a Human Cell Line (U2OS) in a 384-Well Format Using a Cell Imaging Analysis.
The S1P1 internalization assay was performed in 384 well plates (Corning® 384 black with clear bottom 3712) using S1P1-U2OS cells from BioImage (C039A), a human epithelial cell line (Human Bone Osteosarcoma Epithelial Cells). These cells expressed the human S1P1 Receptor fused to the green fluorescent protein (EGFP). A standard CMV promoter (cytomegalovirus promoter) controls the expression of S1P1-EGFP and continuous expression was maintained by addition of geneticin to the culture medium.
S1P1 Receptor desensitization induced the internalization of the membrane-localized S1P1-EGFP fusion protein to endosomes, which can be monitored by cell imaging analysis.
The cells are plated in low serum medium (Dulbecco's Modified Eagle Medium (DMEM) with Glutamax-1 and high glucose, 1% Penicillin/Streptomycin, 1% Fetal Calf Serum (FCS), 0.5 mg/ml Geneticin) overnight. […]
The internalization of the receptor S1P1-EGFP is measured on Cellomics by calculating the “spot count per object” (“object” corresponds to nuclear and “spot” corresponds to S1P1-EGFP receptor). Internalization data were observed thanks to vHCS View and analyzed using Genedata® software.

S1P1 = S1P1 (Homo sapiens, UniProt P21453); assay: Receptor binding assay, [33P]sphingosine 1-phosphate competition, S1P1; details: tested form: HCl
Method: as §1, §2

Question: Which IC50 (S1P3; read-out: S1P3 binding IC50 (M) (96 well-plate), 96 well-plate) does the source give for `Cc1cc(-c2noc(-c3ccc(-c4ccccc4F)c(C(F)(F)F)c3)n2)cnc1NCCC(=O)O` here?
Answer: 9.99e-06 M

Question: And the IC50 (S1P3; read-out: S1P3 binding IC50 (M) (384 well-plate), 384 well-plate)?
Answer: 8.32e-06 M

Question: What about the pEC50 [1] of the same molecule?
Answer: 6.90

Question: What about the IC50 (S1P1; read-out: S1P1 binding IC50 (M) (96 well-plate), 96 well-plate) of the same molecule?
Answer: 1.09e-08 M

Question: And the IC50 (S1P1; read-out: S1P1 binding IC50 (M) (384 well-plate), 384 well-plate)?
Answer: 2.11e-08 M

— patent US20110306636A1, “OXAZOLE PYRIDINE DERIVATIVES USEFUL AS S1P1 RECEPTOR AGONISTS” (Merck Serono SA, priority 2009, published 2011)
